Reference: patent US5554620A, “Substituted 6,11-ethano-6,11-dihydrobenzo[b] quinolizinium salts and compositions and methods of use thereof” (Sterling Winthrop Inc., priority 1994, dated 1996)
At least one structure is not confirmed: it was looked up by name or label, or the drawing left a doubt.

Tested on: PCP receptor
Experiment: [3H]TCP radioreceptor assay (binding to PCP recognition sites)
Design: species or system rat (male Sprague-Dawley, whole brain)
Conditions: for Ki: [3H]TCP approx. 1 nM, rat brain membranes, mean of at least two determinations
Method: [^3 H]TCP Radioreceptor Assay
[^3 H]TCP binding to PCP recognition sites was performed as described by Vignon et al. Brain Research 1983, 280, 194-197. Male Sprague-Dawley rats were sacrificed by decapitation, and whole brains were homogenized in 10 volumes (wt/vol) of cold Tris-HCl buffer (50 mM, pH 7.7) using a Brinkmann Polytron (setting 6, 30 sec). The homogenate was centrifuged at 40,000×g for 10 min at 4° C. The supernatant was decanted, and the homogenization and centrifugation steps were repeated twice as described above. Following this, the pellet was resuspended in Tris-HCl (5 mM, pH 7.7) at a tissue concentration of 0.5-0.75 g/mL, and one mL aliquots were frozen at -70° C. until use. The binding characteristics for PCP recognition sites were not altered by the freezing of membrane suspensions.
On the day of the assay, membrane aliquots were thawed, resuspended in fresh 5 mM Tris-HCl buffer at a tissue concentration of 1 mg/mL, and stored on ice until use. Each assay tube contained 100 μl of [^3 H]TCP at a final concentration of approximately 1 nM, 100 μL of various concentrations of the compounds of interest, 500 μL of the tissue suspension and 300 μL of buffer to a final assay volume of 1 mL and a final protein concentration of 0.5 mg/tube. Non-specific binding was defined by addition of a final concentration of 100 μM PCP to blank tubes. All tubes were incubated at room temperature for 25 min before termination of the reaction by rapid filtration over Whatman GF/B glass fiber filters that had been presoaked in a solution of 0.5% polyethylenimine for at least 1 hr prior to use. Filters were washed with three 4 mL volumes of cold Tris buffer. Following addition of scintillation cocktail, the amount of bound radioactivity was determined by liquid scintillation spectrometry using a Beckman LS 5000TA liquid scintillation counter with an efficiency for tritium of approximately 55%. […]

## C[Si](C)(C)CCOCn1nccc1C1(c2ccnn2COCC[Si](C)(C)C)CC2c3ccccc3C1c1cccc[n+]12 (stereo not drawn) [63(c), 6,11-ethano-12,12-di[5-(1-trimethylsilyl-ethoxymethyl)pyrazolyl]6,11-dihydrobenzo[b]quinolizinium perchlorate]
Inhibition of [3H]TCP binding at 10 μM
  [3H]TCP percent inhibition @ 10 μm: 64%

## CC1C2c3ccccc3C(c3cccc[n+]32)C1(c1ccoc1)c1ccoc1 (stereo not drawn) [14(c), 6,11-ethano-12,12-difuryl-13-methyl-6,11-dihydrobenzo[b]-quinolizinium hexafluorophosphate]
  Ki: 4.9 nM

## O=c1cccc(C2(c3cccc(=O)[nH]3)CC3c4ccccc4C2c2cccc[n+]23)[nH]1 (stereo not drawn) [67(g), 6,11-ethano-12,12-di-(2-oxo-dihydropyridin-6-yl)-6,11-dihydrobenzo[b]quinolizinium chloride]
  Ki: 1480 nM
